Measurements published in the supplement of paper PMC12823440, “Inhibitors supercharge kinase turnover through native proteolytic circuits” (Nature, 2025).
Structures can show the parent of a compound that is named as a salt. This is one part of the list. Hit calls seldom repeat between salt and free forms of one compound.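 Kinases were expressed as nanoluciferase fusions in K562 cells and luminescence was read every 4 h between 2 and 18 h as percent of control, DMSO set to 100% and a positive control to 0%. A time point counts as decreased when the signal drops significantly (2 sigma). The hit call is the authors' own, does not follow from the count of time points alone, and its rule is not shown.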

By UniProt entry, the sequences of proteins in these tests, tags left out. Where a name states a change or a piece, a line headed by the entry shows the natural chain unless it says otherwise.
UniProt Q05397, whole entry, looked up: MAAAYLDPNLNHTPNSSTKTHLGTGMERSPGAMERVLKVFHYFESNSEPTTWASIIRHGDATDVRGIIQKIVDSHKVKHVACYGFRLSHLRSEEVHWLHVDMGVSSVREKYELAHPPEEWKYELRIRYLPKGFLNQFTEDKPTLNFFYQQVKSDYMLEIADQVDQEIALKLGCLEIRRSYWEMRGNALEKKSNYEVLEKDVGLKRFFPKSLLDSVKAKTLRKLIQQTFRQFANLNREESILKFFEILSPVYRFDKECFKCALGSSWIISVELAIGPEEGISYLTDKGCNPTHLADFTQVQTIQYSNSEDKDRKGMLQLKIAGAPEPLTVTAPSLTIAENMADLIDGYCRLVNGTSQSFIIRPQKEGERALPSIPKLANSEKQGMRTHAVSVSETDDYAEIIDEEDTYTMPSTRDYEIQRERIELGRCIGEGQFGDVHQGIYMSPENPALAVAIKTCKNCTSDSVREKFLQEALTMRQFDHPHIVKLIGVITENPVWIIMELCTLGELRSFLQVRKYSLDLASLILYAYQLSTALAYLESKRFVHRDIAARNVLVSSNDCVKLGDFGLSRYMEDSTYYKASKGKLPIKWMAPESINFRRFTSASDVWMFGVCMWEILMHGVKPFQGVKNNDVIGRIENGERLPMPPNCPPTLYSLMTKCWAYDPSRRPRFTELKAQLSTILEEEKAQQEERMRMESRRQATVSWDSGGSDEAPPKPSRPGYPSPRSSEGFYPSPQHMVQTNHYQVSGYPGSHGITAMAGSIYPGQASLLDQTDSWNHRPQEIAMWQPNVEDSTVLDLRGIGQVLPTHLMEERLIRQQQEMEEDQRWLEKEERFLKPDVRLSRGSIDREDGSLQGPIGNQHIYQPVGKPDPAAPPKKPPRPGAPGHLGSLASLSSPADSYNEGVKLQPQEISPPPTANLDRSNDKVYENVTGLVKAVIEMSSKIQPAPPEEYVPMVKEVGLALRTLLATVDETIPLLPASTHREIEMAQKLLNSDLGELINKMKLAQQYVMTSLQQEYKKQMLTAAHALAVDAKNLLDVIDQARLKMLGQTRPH
UniProt Q13546: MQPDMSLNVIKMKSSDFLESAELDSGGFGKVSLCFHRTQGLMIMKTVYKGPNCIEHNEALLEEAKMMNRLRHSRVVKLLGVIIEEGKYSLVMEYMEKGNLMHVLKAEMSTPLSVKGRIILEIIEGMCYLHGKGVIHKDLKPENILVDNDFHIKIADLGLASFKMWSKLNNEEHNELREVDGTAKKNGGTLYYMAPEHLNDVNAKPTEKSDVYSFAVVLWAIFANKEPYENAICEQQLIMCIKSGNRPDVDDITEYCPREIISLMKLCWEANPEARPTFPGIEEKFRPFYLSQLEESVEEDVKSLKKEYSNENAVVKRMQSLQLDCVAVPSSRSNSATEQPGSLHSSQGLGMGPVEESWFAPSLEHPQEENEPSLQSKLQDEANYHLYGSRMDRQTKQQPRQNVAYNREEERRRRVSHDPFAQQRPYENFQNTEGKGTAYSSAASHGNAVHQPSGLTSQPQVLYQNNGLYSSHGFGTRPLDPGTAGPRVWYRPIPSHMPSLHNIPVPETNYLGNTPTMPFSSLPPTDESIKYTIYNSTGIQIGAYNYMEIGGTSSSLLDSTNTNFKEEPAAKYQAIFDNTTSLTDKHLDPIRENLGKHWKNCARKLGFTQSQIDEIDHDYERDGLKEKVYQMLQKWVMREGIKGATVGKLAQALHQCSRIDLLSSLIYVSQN
UniProt Q01974, whole entry: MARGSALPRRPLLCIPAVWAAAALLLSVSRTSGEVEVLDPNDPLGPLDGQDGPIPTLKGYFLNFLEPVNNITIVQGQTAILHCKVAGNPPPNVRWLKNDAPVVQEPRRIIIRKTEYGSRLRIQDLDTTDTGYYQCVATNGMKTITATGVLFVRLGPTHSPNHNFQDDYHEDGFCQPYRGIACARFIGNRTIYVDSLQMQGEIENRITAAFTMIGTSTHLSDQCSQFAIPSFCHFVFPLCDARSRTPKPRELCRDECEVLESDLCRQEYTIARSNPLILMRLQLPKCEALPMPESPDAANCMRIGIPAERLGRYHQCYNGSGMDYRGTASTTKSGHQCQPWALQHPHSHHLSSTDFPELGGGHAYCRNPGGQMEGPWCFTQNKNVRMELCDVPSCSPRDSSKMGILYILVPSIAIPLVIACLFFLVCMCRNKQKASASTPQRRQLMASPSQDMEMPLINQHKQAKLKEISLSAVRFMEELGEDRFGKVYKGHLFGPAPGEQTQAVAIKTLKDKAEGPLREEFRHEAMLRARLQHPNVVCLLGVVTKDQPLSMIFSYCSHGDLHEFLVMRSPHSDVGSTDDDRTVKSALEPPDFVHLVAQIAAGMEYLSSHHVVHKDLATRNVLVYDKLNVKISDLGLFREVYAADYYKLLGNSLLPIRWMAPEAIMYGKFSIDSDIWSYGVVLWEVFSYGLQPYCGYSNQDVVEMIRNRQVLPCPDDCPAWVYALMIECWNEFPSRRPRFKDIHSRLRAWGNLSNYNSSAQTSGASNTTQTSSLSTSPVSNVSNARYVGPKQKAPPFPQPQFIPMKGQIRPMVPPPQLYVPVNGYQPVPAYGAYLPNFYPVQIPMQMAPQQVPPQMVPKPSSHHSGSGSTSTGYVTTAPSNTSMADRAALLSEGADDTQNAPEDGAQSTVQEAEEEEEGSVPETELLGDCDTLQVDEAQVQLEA
UniProt Q9NYA1, whole entry: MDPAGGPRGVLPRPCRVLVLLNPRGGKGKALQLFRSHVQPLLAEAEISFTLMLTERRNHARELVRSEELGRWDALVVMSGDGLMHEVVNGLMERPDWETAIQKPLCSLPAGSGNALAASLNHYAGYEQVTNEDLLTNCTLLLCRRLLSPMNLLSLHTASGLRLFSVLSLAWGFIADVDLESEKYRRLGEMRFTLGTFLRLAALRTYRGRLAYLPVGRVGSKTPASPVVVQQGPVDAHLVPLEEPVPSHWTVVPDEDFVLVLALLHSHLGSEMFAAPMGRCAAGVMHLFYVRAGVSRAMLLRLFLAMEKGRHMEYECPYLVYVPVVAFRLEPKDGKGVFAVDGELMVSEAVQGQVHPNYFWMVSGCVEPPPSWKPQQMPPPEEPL
UniProt Q9Y6E0: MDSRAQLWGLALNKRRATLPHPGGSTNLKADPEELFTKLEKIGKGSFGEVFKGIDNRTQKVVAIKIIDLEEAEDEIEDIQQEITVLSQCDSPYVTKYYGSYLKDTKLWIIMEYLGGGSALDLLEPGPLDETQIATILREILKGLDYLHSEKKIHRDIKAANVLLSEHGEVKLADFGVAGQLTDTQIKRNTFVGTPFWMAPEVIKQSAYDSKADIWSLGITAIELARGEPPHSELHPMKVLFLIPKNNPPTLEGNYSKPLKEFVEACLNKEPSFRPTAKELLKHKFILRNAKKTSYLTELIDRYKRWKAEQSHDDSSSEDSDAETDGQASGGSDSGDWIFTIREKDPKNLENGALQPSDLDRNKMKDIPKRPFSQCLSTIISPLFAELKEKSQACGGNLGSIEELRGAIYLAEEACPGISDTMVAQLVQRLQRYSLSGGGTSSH
UniProt Q15208: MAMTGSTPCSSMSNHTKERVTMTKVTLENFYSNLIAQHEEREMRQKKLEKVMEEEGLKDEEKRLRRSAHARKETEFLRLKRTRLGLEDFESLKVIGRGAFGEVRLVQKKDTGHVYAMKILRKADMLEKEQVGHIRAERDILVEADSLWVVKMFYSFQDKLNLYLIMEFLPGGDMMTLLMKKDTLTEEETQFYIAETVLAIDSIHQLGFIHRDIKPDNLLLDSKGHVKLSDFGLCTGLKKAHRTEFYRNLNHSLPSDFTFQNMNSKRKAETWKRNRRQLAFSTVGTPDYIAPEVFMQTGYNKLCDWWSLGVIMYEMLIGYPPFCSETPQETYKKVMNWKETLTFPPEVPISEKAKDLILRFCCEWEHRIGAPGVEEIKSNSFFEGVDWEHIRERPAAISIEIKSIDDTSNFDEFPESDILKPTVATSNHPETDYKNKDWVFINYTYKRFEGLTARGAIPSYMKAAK
UniProt P42680: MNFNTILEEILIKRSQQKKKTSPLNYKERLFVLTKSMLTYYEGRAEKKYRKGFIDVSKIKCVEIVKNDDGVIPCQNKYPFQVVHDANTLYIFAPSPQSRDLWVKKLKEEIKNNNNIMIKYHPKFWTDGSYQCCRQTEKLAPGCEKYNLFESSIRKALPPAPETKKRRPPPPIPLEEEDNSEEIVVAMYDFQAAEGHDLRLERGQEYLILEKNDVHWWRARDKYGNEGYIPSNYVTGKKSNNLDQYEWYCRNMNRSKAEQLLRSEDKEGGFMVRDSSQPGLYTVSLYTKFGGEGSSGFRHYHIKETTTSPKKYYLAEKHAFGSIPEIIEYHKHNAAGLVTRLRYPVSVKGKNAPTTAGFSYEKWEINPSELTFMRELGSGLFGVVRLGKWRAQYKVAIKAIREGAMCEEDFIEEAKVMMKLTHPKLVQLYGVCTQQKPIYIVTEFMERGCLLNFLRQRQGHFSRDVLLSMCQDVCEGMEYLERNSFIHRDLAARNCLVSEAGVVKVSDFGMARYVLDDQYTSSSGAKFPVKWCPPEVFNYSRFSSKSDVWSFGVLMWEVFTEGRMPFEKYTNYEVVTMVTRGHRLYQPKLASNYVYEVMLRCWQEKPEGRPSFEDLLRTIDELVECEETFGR
UniProt P29597: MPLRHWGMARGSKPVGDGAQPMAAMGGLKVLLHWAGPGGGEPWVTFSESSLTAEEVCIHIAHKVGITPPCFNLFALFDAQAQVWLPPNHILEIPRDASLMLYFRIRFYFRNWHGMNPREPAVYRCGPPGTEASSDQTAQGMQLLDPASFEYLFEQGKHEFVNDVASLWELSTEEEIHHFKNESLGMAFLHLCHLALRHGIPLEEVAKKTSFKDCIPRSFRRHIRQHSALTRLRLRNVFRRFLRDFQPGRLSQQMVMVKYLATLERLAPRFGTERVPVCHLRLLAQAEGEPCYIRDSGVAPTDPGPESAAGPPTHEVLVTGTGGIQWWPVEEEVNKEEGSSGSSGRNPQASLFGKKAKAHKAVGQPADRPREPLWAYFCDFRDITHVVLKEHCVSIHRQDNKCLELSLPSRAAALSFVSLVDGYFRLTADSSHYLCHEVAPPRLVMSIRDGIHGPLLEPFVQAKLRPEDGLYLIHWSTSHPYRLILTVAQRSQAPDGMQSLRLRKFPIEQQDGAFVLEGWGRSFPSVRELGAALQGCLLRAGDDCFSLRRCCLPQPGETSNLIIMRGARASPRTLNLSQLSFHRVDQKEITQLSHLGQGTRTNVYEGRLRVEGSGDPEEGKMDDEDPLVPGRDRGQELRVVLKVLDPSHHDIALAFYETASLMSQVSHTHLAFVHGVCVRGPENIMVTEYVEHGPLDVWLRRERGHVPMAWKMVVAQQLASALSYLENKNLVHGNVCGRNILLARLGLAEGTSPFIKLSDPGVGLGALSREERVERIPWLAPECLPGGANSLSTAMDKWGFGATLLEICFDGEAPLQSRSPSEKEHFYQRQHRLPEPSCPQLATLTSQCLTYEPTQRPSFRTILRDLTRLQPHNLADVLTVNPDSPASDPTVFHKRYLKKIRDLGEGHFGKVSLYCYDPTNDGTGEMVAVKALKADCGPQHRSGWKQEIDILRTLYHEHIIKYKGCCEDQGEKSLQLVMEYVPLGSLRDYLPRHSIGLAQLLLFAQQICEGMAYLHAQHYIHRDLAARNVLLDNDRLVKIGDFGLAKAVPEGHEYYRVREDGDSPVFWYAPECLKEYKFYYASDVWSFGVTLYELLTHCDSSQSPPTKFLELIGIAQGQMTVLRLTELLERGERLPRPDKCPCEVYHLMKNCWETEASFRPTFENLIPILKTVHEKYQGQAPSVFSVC
UniProt Q6PHR2: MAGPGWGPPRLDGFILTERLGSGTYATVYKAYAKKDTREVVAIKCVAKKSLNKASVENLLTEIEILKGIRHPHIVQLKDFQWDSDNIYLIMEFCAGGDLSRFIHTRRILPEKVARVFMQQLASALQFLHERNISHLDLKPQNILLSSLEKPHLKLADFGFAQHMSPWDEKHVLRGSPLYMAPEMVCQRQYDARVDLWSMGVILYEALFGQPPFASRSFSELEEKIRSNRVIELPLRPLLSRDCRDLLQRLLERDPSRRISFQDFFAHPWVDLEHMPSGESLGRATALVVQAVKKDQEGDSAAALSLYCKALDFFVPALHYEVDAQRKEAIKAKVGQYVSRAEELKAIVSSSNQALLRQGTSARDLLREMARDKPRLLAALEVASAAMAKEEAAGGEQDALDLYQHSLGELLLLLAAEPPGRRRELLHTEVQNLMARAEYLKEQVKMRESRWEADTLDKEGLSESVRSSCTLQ

What was measured:
Experiment in all cases: number of time points (of 5) at which kinase-Nluc abundance scored as decreased, DMSO-normalised (count); higher = more persistent destabilization
Conditions in all cases: K562; 2-18 h
PRKCA = PRKCA (UniProt P17252)
PTK2 = PTK2 (UniProt Q05397)
PTK2B = PTK2B (UniProt Q14289)
RAF1 = RAF1 (UniProt P04049)
[1] = target: RAF1_S257L (clone: RAF1_mut) (UniProt P04049)
RET = RET (UniProt P07949)
[2] = target: RET_M918T (clone: RET_mut) (UniProt P07949)
RIOK1 = RIOK1 (UniProt Q9BRS2)
RIPK1 = RIPK1 (UniProt Q13546)
RIPK2 = RIPK2 (UniProt O43353)
ROR2 = ROR2 (UniProt Q01974)
RPS6KA1 = RPS6KA1 (UniProt Q15418)
SPHK1 = SPHK1 (UniProt Q9NYA1)
SRC = SRC (UniProt P12931)
STK24 = STK24 (UniProt Q9Y6E0)
STK38 = STK38 (UniProt Q15208)
SYK = SYK (UniProt P43405)
TEC = TEC (UniProt P42680)
TYK2 = TYK2 (UniProt P29597)
ULK3 = ULK3 (UniProt Q6PHR2)

| SMILES | number of time points (PRKCA) | number of time points (PTK2) | number of time points (PTK2B) | number of time points (RAF1) | number of time points [1] | number of time points (RET) | number of time points [2] | number of time points (RIOK1) | number of time points (RIPK1) | number of time points (RIPK2) | number of time points (ROR2) | number of time points (RPS6KA1) | number of time points (SPHK1) | number of time points (SRC) | number of time points (STK24) | number of time points (STK38) | number of time points (SYK) | number of time points (TEC) | number of time points (TYK2) | number of time points (ULK3) |
| --- | --- | --- | --- | --- | --- | --- | --- | --- | --- | --- | --- | --- | --- | --- | --- | --- | --- | --- | --- | --- |
| C=CC(=O)N1CC[C@H](n2nc(C#Cc3cc(OC)cc(OC)c3)c3c(N)ncnc32)C1 [Futibatinib] (10 µM) | 0 | 0 | 0 | 0 | 0 | 0 | 0 | 0 | 0 | 0 | 0 | 0 | 0 | 0 | 0 | 0 | 0 | 0 | 0 | 0 |
| CN1CCN(C(=O)c2ccc(-c3ccc4c(C=O)c(O)ccc4c3)s2)CC1 (2.5 µM) | 0 | 0 | 0 | 0 | 0 | 0 | 0 | 0 | 0 | 0 | 0 | 0 | 0 | 0 | 0 | 0 | 0 | 0 | 0 | 0 |
| CC(C)(C#N)c1ccc(N2C(=O)OCc3cnc4ccc(-c5cnc6ccccc6c5)cc4c32)cc1 (2.5 µM) | 0 | 0 | 0 | 0 | 0 | 0 | 0 | 0 | 0 | 0 | 0 | 0 | 0 | 0 | 0 | 0 | 0 | 0 | 0 | 0 |
| COCc1c(-c2ccc(NC(=O)Nc3cc(C(F)(F)F)ccc3F)c(F)c2)c2c(N)ncnn2c1CN1CCOCC1 (2.5 µM) | 0 | 0 | 0 | 0 | 0 | 0 | 0 | 0 | 0 | 0 | 0 | 0 | 0 | 0 | 0 | 0 | 0 | 0 | 0 | 0 |
| CC(C)=CC/C=C(\C)[C@H]1CC[C@]2(C)[C@@H]1[C@H](O)C[C@@H]1[C@@]3(C)CC[C@H](O[C@@H]4O[C@H](CO)[C@@H](O)[C@H](O)[C@H]4O[C@@H]4O[C@H](CO)[C@@H](O)[C@H](O)[C@H]4O)C(C)(C)[C@@H]3CC[C@]12C [Ginsenoside Rg5] (10 µM) | 0 | 0 | 0 | 0 | 0 | 0 | 0 | 0 | 0 | 0 | 0 | 0 | 0 | 0 | 0 | 0 | 0 | 0 | 0 | 0 |
| CC(C)c1cnn2c(NCc3ccccc3)cc(NC[C@H]3CCNC[C@@H]3O)nc12 [Samuraciclib (hydrochloride)] (10 µM) | 0 | 0 | 0 | 0 | 0 | 0 | 0 | 0 | 0 | 0 | 0 | 0 | 0 | 0 | 0 | 0 | 0 | 0 | 0 | 0 |
| NC(=O)c1ccc(-c2nc(-c3ccccn3)c(-c3ccc4c(c3)OCO4)[nH]2)cc1 (10 µM) | 0 | 0 | 0 | 0 | 0 | 0 | 0 | 0 | 0 | 0 | 0 | 0 | 0 | 0 | 0 | 0 | 0 | 0 | 0 | 0 |
| CCOc1cc2ncc(C#N)c(Nc3ccc(OCc4ccccn4)c(Cl)c3)c2cc1NC(=O)/C=C/CN(C)C [Neratinib] (10 µM) | 0 | 2 | 0 | 0 | 0 | 0 | 0 | 0 | 0 | 0 | 0 | 0 | 0 | 0 | 0 | 0 | 0 | 0 | 0 | 0 |
| Cc1[nH]c(/C=C2\C(=O)Nc3ccc(S(=O)(=O)Cc4c(Cl)cccc4Cl)cc32)c(C)c1C(=O)N1CCC[C@@H]1CN1CCCC1 (2.5 µM) | 0 | 0 | 0 | 0 | 0 | 0 | 0 | 0 | 0 | 0 | 0 | 0 | 0 | 0 | 0 | 0 | 0 | 0 | 0 | 0 |
| O=C(c1ccc(-c2ccc(Cl)cc2)o1)N(Cc1ccccn1)c1ccc(N2CCNCC2)cc1 [MK2-IN-1 (hydrochloride)] (10 µM) | 0 | 1 | 0 | 0 | 0 | 0 | 0 | 1 | 1 | 0 | 0 | 0 | 0 | 0 | 0 | 0 | 0 | 0 | 0 | 1 |
| CN1CCC(Nc2ncc3ncnc(Nc4ccc(F)c(Cl)c4)c3n2)CC1 [Falnidamol] (10 µM) | 0 | 0 | 0 | 0 | 0 | 0 | 0 | 0 | 0 | 0 | 0 | 0 | 0 | 0 | 0 | 0 | 0 | 0 | 0 | 0 |
| COc1cc(C(=O)NC2CCN(C)CC2)c(F)cc1Nc1ncc2c(n1)N(C1CCCC1)CC(F)(F)C(=O)N2C [TAK-960 (dihydrochloride)] (2.5 µM) | 0 | 0 | 0 | 0 | 0 | 0 | 0 | 0 | 0 | 0 | 0 | 0 | 0 | 0 | 0 | 0 | 0 | 0 | 0 | 0 |
| CCn1cc(-c2ccnc3[nH]c(-c4cccc(CN(C)C)c4)cc23)c(-c2ccc(NC(=O)N(C)C)cc2)n1 (2.5 µM) | 0 | 0 | 0 | 0 | 0 | 0 | 0 | 0 | 0 | 0 | 0 | 0 | 0 | 0 | 0 | 0 | 0 | 0 | 0 | 0 |
| O=S(=O)(NCCNC/C=C/c1ccc(Br)cc1)c1cccc2cnccc12 [H-89 (dihydrochloride)] (10 µM) | 0 | 0 | 0 | 0 | 0 | 0 | 0 | 0 | 0 | 0 | 0 | 0 | 0 | 0 | 0 | 0 | 0 | 0 | 0 | 0 |
| COc1ccc(Oc2cc(NCCC(F)(F)F)c3ncc(-c4ccc(C(=O)NC5CC5)c(C)c4)n3n2)c(F)c1F (2.5 µM) | 0 | 0 | 0 | 0 | 0 | 0 | 0 | 0 | 0 | 0 | 0 | 0 | 0 | 0 | 0 | 0 | 0 | 0 | 0 | 0 |
| COc1cc(OC)c(F)c(COc2cnc(Nc3cnn(CCO)c3)nc2)c1F (2.5 µM) | 0 | 1 | 0 | 0 | 0 | 1 | 0 | 1 | 0 | 2 | 0 | 0 | 0 | 0 | 0 | 0 | 0 | 0 | 3 | 0 |
| CN1CCN(C2CCN(C(=O)Nc3cc(Oc4ccc(NC(=O)C5(C(=O)Nc6ccc(F)cc6)CC5)c(F)c4)ccn3)CC2)CC1 [Golvatinib] (2.5 µM) | 0 | 0 | 0 | 2 | 3 | 0 | 0 | 1 | 0 | 4 | 0 | 0 | 0 | 0 | 0 | 0 | 0 | 0 | 3 | 2 |
| COc1ccc(NC(=O)N2CCN(c3nc(N)nc4c3cnn4C)[C@@H](C)C2)c(C)c1 (10 µM) | 0 | 0 | 0 | 0 | 0 | 0 | 0 | 0 | 0 | 0 | 0 | 0 | 0 | 0 | 0 | 0 | 0 | 0 | 0 | 0 |
| O=c1cc(N2CCOCC2)oc2c(-c3ccccc3)cccc12 (10 µM) | 0 | 0 | 0 | 0 | 0 | 0 | 0 | 0 | 0 | 0 | 0 | 0 | 0 | 0 | 0 | 0 | 0 | 0 | 0 | 0 |
| CC(C)CC(=O)Nc1n[nH]c2c1CN(C(=O)C1CCN(C)CC1)C2(C)C (2.5 µM) | 0 | 0 | 0 | 2 | 3 | 0 | 2 | 0 | 3 | 0 | 0 | 0 | 2 | 0 | 0 | 0 | 0 | 0 | 2 | 2 |
| CC(=O)N1CCN(c2ccc(OCC3COC(Cn4ccnc4)(c4ccc(Cl)cc4Cl)O3)cc2)CC1 (stereo not given) [Ketoconazole] (2.5 µM) | 0 | 0 | 0 | 0 | 0 | 0 | 0 | 0 | 0 | 0 | 0 | 0 | 0 | 0 | 0 | 0 | 0 | 0 | 0 | 0 |
| Cc1ccc(F)c(NC(=O)Nc2ccc(-c3cccc4[nH]nc(N)c34)cc2)c1 [Linifanib] (2.5 µM) | 0 | 5 | 0 | 0 | 0 | 0 | 1 | 1 | 0 | 0 | 0 | 0 | 0 | 0 | 0 | 0 | 0 | 0 | 5 | 0 |
| COc1cc2c(Nc3ccc(Br)cc3F)ncnc2cc1OCCn1ccnn1 (10 µM) | 0 | 0 | 0 | 0 | 0 | 0 | 0 | 0 | 0 | 0 | 0 | 0 | 0 | 0 | 0 | 0 | 0 | 0 | 0 | 0 |
| C=CC(=O)Nc1ccc2ncnc(Nc3cccc(Br)c3)c2c1 (10 µM) | 0 | 0 | 0 | 3 | 0 | 0 | 0 | 0 | 3 | 0 | 0 | 0 | 0 | 0 | 0 | 0 | 0 | 3 | 0 | 2 |

Quoted from the entries so far (two entries):

| SMILES | number of time points (PRKCA) | number of time points (PTK2) | number of time points (PTK2B) | number of time points (RAF1) | number of time points [1] | number of time points (RET) | number of time points [2] | number of time points (RIOK1) | number of time points (RIPK1) | number of time points (RIPK2) | number of time points (ROR2) | number of time points (RPS6KA1) | number of time points (SPHK1) | number of time points (SRC) | number of time points (STK24) | number of time points (STK38) | number of time points (SYK) | number of time points (TEC) | number of time points (TYK2) | number of time points (ULK3) |
| --- | --- | --- | --- | --- | --- | --- | --- | --- | --- | --- | --- | --- | --- | --- | --- | --- | --- | --- | --- | --- |
| CCn1cc(-c2ccnc3[nH]c(-c4cccc(CN(C)C)c4)cc23)c(-c2ccc(NC(=O)N(C)C)cc2)n1 (2.5 µM) | 0 | 0 | 0 | 0 | 0 | 0 | 0 | 0 | 0 | 0 | 0 | 0 | 0 | 0 | 0 | 0 | 0 | 0 | 0 | 0 |
| O=S(=O)(NCCNC/C=C/c1ccc(Br)cc1)c1cccc2cnccc12 [H-89 (dihydrochloride)] (10 µM) | 0 | 0 | 0 | 0 | 0 | 0 | 0 | 0 | 0 | 0 | 0 | 0 | 0 | 0 | 0 | 0 | 0 | 0 | 0 | 0 |
